Negatives hold for the conditions tested. The exact form of at least one protein or probe is not confirmed. At least one verdict was read from the data and is not stated in words by the source. Tags and fusion partners may be left off the protein sequences shown.
Biological target: T1, RepA (His6-RepA) (UniProt Q209K0)
T1 sequence (looked up): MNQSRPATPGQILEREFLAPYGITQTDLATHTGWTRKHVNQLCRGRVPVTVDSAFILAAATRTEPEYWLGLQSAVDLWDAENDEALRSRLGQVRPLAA
Assay: EMSA
Details: 25 mM Tris-HCl pH 8.0, 5 mM MgCl2, 40 mM NaCl, 0.5 mg/mL BSA, 30 min at 37 C, 20 uL, 30 ng PCR fragment (0.8% agarose) or 150 ng ds oligo (10% native PAGE), 0.5x TBE, recombinant protein, residues 1-98, protein details: N-terminal His6, label: none (ethidium bromide stain), probe letters rebuilt from the primers and the genome

GCGGATCCGATAGCTCTTTGCCATTAACGACCTCTTTAAACATGGGGGGGCAGGGGGGGACAGGTGCAATTTTAGCACAAGCGGCGGCAGACGCTAGCAAATTGCGAATCCTGCCCTAGTTCTAACCCCCCCATGTTTTTTCGTACGTACGAAATTTTTCGGTTTTGCAGTGGCTTTTGGCCTTCGGCCAGGCTCACCAGGTCGCGGGGCTCCCTGGCTCGTCGGCTTCCCCTAACTTTGGATTGTGCAATCCAAAAGGCTGCCGCATAATGGTTATAGATTGTGCAATCCAATACACGGAGCAGGGCACTAGATGAAACCAACATTGCAGGCTTACGACGAACTACAGCGGGCATATGATCACTTTAACAACGAGCTGTTTGATGGTGTCCTGCCCGATTGCCTGATCACCCTCCAACGAGAAAAGCATGCGC (double strand) [mobCp 417 bp PCR fragment]
binding result (no binding up to 5 uM RepA): no binding

CGGATCCGCGGGCCTGATCTATTGTTGAAGTTTACCAACTAGGTTACACTTCAAAACACATCATTCTGATGAGGGCTTATTACATGAACCAATCACGACCGGCCACACCTGGCCAGATACTTGAAAGGGAATTCTTGGCCCCGTACGGAATCACTCAAACAGACTTGGCCACCCATACCGGATGGACAAGAAAGCACGTTAATCAGCTATGTCGCGGGCGAGTGCCTGTTACAGTCGATAGCGCGTTTATCCTGGCAGCAGCTAGGATCCCG (double strand) [repAp 256 bp PCR fragment]
binding result (WT control): binds

CGGATCCGCGGGCCTGATCTATTGTTGAAGTTTACCAACTAGGTTACACTTCAAAACACATCATTCTGATGAGGGCTTATTACATGAACCAATCACGACCGGCCACACCTGGCCAGATACTTGAAAGGGAATTCTTGGCCCCGTACGGAATCACTCAAACAGACTTGGCCACCCATACCGGATGGACAAGAAAGCACGTTAATCAGCTATGTCGCGGGCGAGTGCCTGTTACAGTCGATAGCGCGTTTATCCTGGCAGCAGCTACACGAACAGAGCCGGAATACTGGCTAGGGCTGCAAAGTGCCGTGGATCTATGGGACGCAGAGAATGACGAGGCGTTGCGTAGTCGTCTAGGACAGGTGAGGCCGTTAGCGGCATAGAAAGCATGCGGATCCG (double strand) [repAp-repA 376 bp PCR fragment]
binding result (binding detected at 25 nM RepA): binds

Source: article PMC9455977, “Deciphering the Regulatory Circuits of RA3 Replication Module - Mechanisms of the Copy Number Control”
